According to patent US12077599 (SEOUL NATIONAL UNIVERSITY R AND DB FOUNDATION NATIONAL …, dated 2024):
No constants are given. Whether binding was seen depends on the method and setting. Some results given as binding are weak or reduced against the parent protein; the word gives no strength. Sequences can lack the tags named with a protein.

By UniProt entry, the sequences of proteins in these tests, tags left out. Residues count along the entry.
UniProt P11021, residues 19-654: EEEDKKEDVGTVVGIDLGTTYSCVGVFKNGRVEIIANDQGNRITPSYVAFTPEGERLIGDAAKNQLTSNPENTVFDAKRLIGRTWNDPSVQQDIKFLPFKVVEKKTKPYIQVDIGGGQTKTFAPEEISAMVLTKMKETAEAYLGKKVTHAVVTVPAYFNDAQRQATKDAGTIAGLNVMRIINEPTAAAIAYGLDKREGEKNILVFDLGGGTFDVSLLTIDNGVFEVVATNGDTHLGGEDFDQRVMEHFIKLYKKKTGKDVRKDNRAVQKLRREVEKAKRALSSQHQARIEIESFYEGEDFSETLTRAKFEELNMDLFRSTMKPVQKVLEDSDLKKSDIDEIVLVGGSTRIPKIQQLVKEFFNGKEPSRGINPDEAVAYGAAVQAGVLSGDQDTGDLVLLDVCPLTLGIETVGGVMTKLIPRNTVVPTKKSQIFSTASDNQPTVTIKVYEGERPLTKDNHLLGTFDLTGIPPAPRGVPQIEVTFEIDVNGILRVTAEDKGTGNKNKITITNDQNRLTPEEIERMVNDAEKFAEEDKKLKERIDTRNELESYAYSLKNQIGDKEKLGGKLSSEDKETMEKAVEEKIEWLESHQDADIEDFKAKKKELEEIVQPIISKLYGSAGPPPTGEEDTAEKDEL
UniProt P38646, residues 47-679: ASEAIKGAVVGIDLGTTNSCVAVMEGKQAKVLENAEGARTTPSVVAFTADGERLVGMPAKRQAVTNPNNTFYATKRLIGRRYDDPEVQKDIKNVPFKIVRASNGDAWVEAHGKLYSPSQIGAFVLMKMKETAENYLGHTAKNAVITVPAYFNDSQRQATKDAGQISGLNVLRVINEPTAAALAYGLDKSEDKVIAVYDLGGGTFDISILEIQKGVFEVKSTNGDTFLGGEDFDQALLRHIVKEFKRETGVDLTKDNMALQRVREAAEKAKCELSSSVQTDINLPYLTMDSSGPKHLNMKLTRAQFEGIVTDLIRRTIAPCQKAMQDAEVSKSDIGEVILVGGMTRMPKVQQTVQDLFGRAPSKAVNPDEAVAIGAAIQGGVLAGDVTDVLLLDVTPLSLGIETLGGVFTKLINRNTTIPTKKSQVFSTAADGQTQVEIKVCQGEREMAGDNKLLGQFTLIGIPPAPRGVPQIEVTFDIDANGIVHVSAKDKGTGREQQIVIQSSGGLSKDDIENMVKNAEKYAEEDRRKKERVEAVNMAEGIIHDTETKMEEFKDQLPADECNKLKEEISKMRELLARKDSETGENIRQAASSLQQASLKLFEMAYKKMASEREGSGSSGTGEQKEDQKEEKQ

Columns and labels:
[1] = biological target: 78 kDa glucose-regulated protein (GRP78), from HEK293T cell lysate (human) (UniProt P11021); assay: immunoprecipitation with 3B20 scFv-rFc from HEK293T lysates, LC-MS of the 70 kDa band
[2] = biological target: GRP75 (Enzo Life Sciences) (UniProt P38646); assay: ELISA, GRP75 coated, scFv-rFc at 0 to 2000 ng/ml, HRP anti-rabbit IgG

binding [1]: binds
binding [2]: binds
B1: 3B20 scFv-rFc fusion protein (Fc fusion, rabbit)
chain: LTQPSSVSANLGGTVKITCSGGSYGYGWYQQKAPGSAPVTVIYDNTNRPSDIPSRFSGSKSGSTGTLTITGVQVEDEAVYYCGSADSSSIATFGAGTTLTVLGQSSRSSGGGGSSGGGGSAVTLDESGGGLQTPGGTLSLVCKASGFSFSDRGMHWMRQAPGKGLEYVGAISGDGYITHYGAAVKGRATISRDNGQSTVRLQLNNLRAEDTATYYCTRGGGGNIDAWGHGTEVIVSSTS
notes: domain: fragment crystallizable region Fc (rFc); scFv fused with rabbit Fc, expressed from modified pCEP4; also called 3B20-rFc; scFv(3B20)-rFc fusion protein; not shown: rabbit antibody fragment crystallizable region Fc (rFc)
